Laboratory results as given in PMC10997846.
No constants are given. Whether binding was seen depends on the method and setting. Binding seen in cells or lysates may run through a third protein. Some entries that bind do so weakly or less than the wild type.

Protein sequences, listed by entry. Tags and fused reporters are not part of them.
UniProt O60262: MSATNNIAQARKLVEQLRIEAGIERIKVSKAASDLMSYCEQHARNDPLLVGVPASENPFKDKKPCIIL

Target: T1, R-spondin 3 (human (endogenous in AGS or MKN45 gastric cancer cells)) (UniProt Q9BXY4)
T1 sequence: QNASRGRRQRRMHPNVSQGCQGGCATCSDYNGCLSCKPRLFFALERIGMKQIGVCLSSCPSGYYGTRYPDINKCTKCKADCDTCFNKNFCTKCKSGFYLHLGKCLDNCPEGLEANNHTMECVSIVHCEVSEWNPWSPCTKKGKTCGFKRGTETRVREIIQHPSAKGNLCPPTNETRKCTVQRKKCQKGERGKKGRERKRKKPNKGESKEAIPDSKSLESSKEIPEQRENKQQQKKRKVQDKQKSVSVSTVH
Experiment: co-IP; IP and western blotting from cellular lysate (CoIP kit, Protein A + G Agarose, 4°C)

binding: binds
Sequence: G protein subunit gamma 7 (from UniProt O60262 1-68)
